# Primary screen of a compound library

The values are deposited in ChEMBL (CHEMBL3988442, “University of Dundee, Small-Polar-MMV Screening Library” (2021)).

Each number is a percent effect as filed.
How 0% and 100% were set is not recorded. Most values in the screen are low, and negative values occur.
This is an unselected part of the compounds tested.
A dash means the value is not listed here; it may have been measured.

T. brucei: 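Whole-parasite assay of Trypanosoma brucei over 72 hours; the read-out is not stated. Tested at 30 µM. Higher reads as stronger inhibition (inferred: compounds with an IC50 in retests scored well above the rest). Values scatter widely below zero; nearly all retest evidence comes from the higher of the two concentrations used. Size under these conditions: about 64,000 compounds, about 940 of them at 50% or above in at least one test.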
Toxoplasma: 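Assay of Toxoplasma gondii numbers, read through their beta-galactosidase reporter with a colour substrate. Concentration: 10 µM. The record gives no direction; the compounds picked for IC50 retests had high values, so higher reads as fewer parasites. About 67,000 compounds were tested under these conditions; 0.38% (about 260) showed 50% or more at least once.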

structure	T. brucei	Toxoplasma
CN(CCc1cn[nH]c1)C(=O)C1CC(=O)N(Cc2cccnc2)C1 (centres unmarked)	-25.34%	-4.817%
Cc1nnc2n1CCN(C(=O)c1cn(-c3ccccc3)nn1)C2	-22.63%	-16.36%
CC(c1ccncc1)N(CCN(C)C)C(=O)Nc1ccc(Cl)cc1 (centres unmarked)	-26.3%	7.189%
CCNC(c1cccnc1)c1ccc(F)c(F)c1 (centres unmarked)	1.818%	0.9561%
CCc1cc(-c2cc[nH]n2)nc(N2CCCC2)n1	-59.59%	9.843%
CC(NC(N)=O)C(=O)N(C)CCCc1cc(-c2ccccc2)no1 (centres unmarked)	-24.07%	4.954%
CC(C)n1nc(CN(C)C)c2c1CN(C(=O)CC1CC1)CC2.O=C(O)C(F)(F)F	-64.61%	-1.025%
CCC(=O)N1CCC(c2nc(N3CCOCC3)ncc2S(C)(=O)=O)CC1	13.09%	-39.62%
Cc1cnn(CC(=O)N2CCC3(CCC(=O)N(C4CCCC4)C3)CC2)c1	8.8%	-3.17%
[H][C@@]12C[C@H](C(=O)NCC3CC3)[C@@]([H])(CN(C(=O)NCc3ccccc3)C1)O2	46.62%	3.032%
O=C(O)C(F)(F)F.c1ccc(N2CCCC3(CCN(Cc4cccs4)C3)C2)nc1 (centres unmarked)	-18.44%	3.273%
Cc1[nH]c2ccc(C(=O)N3C[C@@H](O)[C@H](N4CCOCC4)C3)cc2c1C	-28.68%	5.59%
CCc1nc(CCn2cc(-c3nccn3C)nn2)no1	-0.4464%	-4.469%
Cc1ccccc1-c1csc2c(=O)[nH]c(N3CCCC(C(=O)O)C3)nc12 (centres unmarked)	-35.19%	-3.475%
CC(C)n1cc(S(=O)(=O)N2CCCCCC2)cn1	-5.302%	51.25%
CCOc1ccc(NC(=O)N(CCC#N)Cc2ccccn2)cc1F	-100.9%	3.333%
Cc1noc(C)c1-c1cccc(CC2CCN(C(=O)c3cscn3)C2)n1 (centres unmarked)	-1.288%	6.753%
Cn1cc(CN2CCC(c3cc(CCO)[nH]n3)C2)cn1 (centres unmarked)	-5.09%	-7.634%
CC(=O)NC1CCCN(C(=O)NCc2cccnc2-n2cccn2)C1 (centres unmarked)	-21.31%	-3.011%
Cc1ccc(C)c(S(=O)(=O)NC(=O)c2cccc3c2OCCO3)c1	-34.65%	3.968%
CCNc1cc2c(nn1)CCN(C(=O)c1ccoc1)C2	-	0.7598%
CCC(CC)(CNC(=O)OC(C)(C)C)NC(=O)c1cnccn1	5.029%	-3.432%
CC(C)CN1CCC2(CCN(C(=O)c3ccc(F)cc3)CC2)C1=O	-3.302%	10.77%
CCc1nc(CNc2ccc(F)cc2I)no1	8.36%	4.886%
Cc1ccc(CNC(=O)CN2CCN(CC(O)c3ccco3)CC2)cc1.Cl.Cl (centres unmarked)	37.05%	-1.109%
CCOC1CCN(C(=O)NCc2ccc(CN3CCOCC3)cc2)CC1	-91.46%	6.586%
COc1cccc(OCCN2CC[C@@](O)(C3CCOCC3)[C@H](C)C2)c1	-19.33%	0.09074%
O=C(CNC(=O)c1cc(Cl)ccn1)Nc1nccs1	-6.068%	3.717%
CCn1nc2c(cc1=O)CN(c1nc3ccccc3s1)CC2	-24.49%	-2.367%
COc1ccc2nc(C[C@@H]3C[C@@H](C(C)C)[C@H](CN(C)C)C=C3C)[nH]c2n1	15.7%	18.1%
[H][C@@]12CCN(C(=O)c3ccccc3)C[C@@]1([H])O[C@@H](c1nccs1)C2	1.97%	-14.09%
CC(C)OCCCNC(=O)CS(=O)(=O)Cc1ccc(Cl)cc1	-	21.33%
Cc1nc(C(=O)Nc2cc(N3CCNC3=O)ccc2Cl)cs1	-0.9887%	7.803%
CN(Cc1ccccc1)C(=O)CCNc1ncccc1C#N	5.27%	-6.364%
CN(C)c1ncc(CNC2CC(=O)N(CCc3cccc(Cl)c3)C2)s1 (centres unmarked)	-47.15%	-18.45%
O=C(O)C(F)(F)F.[H][C@@]12CCN(Cc3cc(C)on3)C[C@]1(C(=O)NCc1ccco1)CCO2	-21.36%	-6.648%
Cc1nn2cnnc2c(C)c1CCC(=O)Nc1nc2c(s1)CCC2	6.781%	7.708%
O=C(O)C(F)(F)F.[H][C@@]12C[C@@H](c3nc(C4CC4)cs3)O[C@]1([H])CN(C(=O)c1ccnnc1)C2	-53.03%	5%
O=C(O)C(F)(F)F.O=C(O)C(F)(F)F.[H][C@]12C[C@@H](C(=O)N(C)Cc3ccccn3)CO[C@@]1([H])CCN(C)C2	-23.02%	-2.57%
CCc1c(C)nn(CCN2CC3(CCOC3)CCC2=O)c1C (centres unmarked)	-13.43%	-4.508%
CNC(=O)c1cn2cc(-c3cccc(Cl)c3)n(CC=C(C)C)c(=O)c2n1	-34.55%	-45.75%
O=C(c1ncccc1O)N1CCc2c(ncnc2N2CCOCC2)C1	-5.398%	-1.019%
Cc1cc(CN2CCN(C(=O)NC(C)Cn3ccnc3)CC2)no1 (centres unmarked)	-12.4%	-10.02%
O=C1CCN(C(=O)NCc2ccccc2Oc2ccccc2)CCN1	-44.04%	-1.53%
[H][C@]12CC[C@@]3(N=C(CC)N(C)C3=O)[C@@]1([H])CN(S(=O)(=O)CC(C)C)C2	-3.321%	-4.878%
Cc1nc(CSc2ccc(C(F)(F)F)cn2)no1	-12.47%	2.717%
CN(C)C(=O)N1CCC2(CC(=O)N(c3cccc(C#N)c3)C2)C1 (centres unmarked)	22.17%	1.367%
CCCOCCN1CCN(c2ncnc3[nH]ccc23)CC1	12.06%	9.067%
Cc1c[nH]c(C(=O)N2CCCC2c2ccc(C(=O)N3CCSCC3)s2)n1 (centres unmarked)	-9.115%	14.8%
CCN(Cc1ccccn1)C1CCN(c2ccccc2)C1=O (centres unmarked)	-0.3776%	3.672%
Cc1nc(CC(=O)N2CCC(c3ccn4nccc4n3)CC2)cs1	9.388%	-3.679%
O=C(c1cccc(N2CCCC2=O)c1)N1CCCC(n2cccn2)C1 (centres unmarked)	0.8502%	-12.52%
CCNC(=O)[C@@H]1C[C@@H](N)CN1C(=O)c1cc2ccccc2[nH]1	-30.46%	-5.898%
CCc1nnc(Nc2cccc(C3CCN(C(=O)CNC)CC3)n2)s1	-15.75%	11.82%
O=C(Cn1cccnc1=O)NCc1cccnc1OCC(F)(F)F	-52.32%	-47.21%
CN(Cc1ccccc1F)C(C(N)=O)c1ccccc1 (centres unmarked)	-40.57%	7.287%
Cc1nnc(C(C)N2CCCN(Cc3noc(C4CC4)n3)CC2)o1 (centres unmarked)	-43.34%	-26.37%

Some entries from above, unchanged:

For CN(C)c1ncc(CNC2CC(=O)N(CCc3cccc(Cl)c3)C2)s1 (centres unmarked) the result was T. brucei: -47.15%; Toxoplasma: -18.45%.
For CC(NC(N)=O)C(=O)N(C)CCCc1cc(-c2ccccc2)no1 (centres unmarked) the result was T. brucei: -24.07%; Toxoplasma: 4.954%.
For CC(C)n1cc(S(=O)(=O)N2CCCCCC2)cn1 the result was T. brucei: -5.302%; Toxoplasma: 51.25%.
For CNC(=O)c1cn2cc(-c3cccc(Cl)c3)n(CC=C(C)C)c(=O)c2n1 the result was T. brucei: -34.55%; Toxoplasma: -45.75%.
For Cc1ccc(C)c(S(=O)(=O)NC(=O)c2cccc3c2OCCO3)c1 the result was T. brucei: -34.65%; Toxoplasma: 3.968%.
For CCNc1cc2c(nn1)CCN(C(=O)c1ccoc1)C2 the result was Toxoplasma: 0.7598%.
For O=C(O)C(F)(F)F.[H][C@@]12C[C@@H](c3nc(C4CC4)cs3)O[C@]1([H])CN(C(=O)c1ccnnc1)C2 the result was T. brucei: -53.03%; Toxoplasma: 5%.